Test results from publication PMC8500223.
No constants are given. Whether binding was seen depends on the method and setting. Binding seen in cells or lysates may run through a third protein. Some entries that bind do so weakly or less than the wild type. Sequences can lack the tags named with a protein.

By UniProt entry, the sequences of proteins in these tests, tags left out.
UniProt Q5DTW7: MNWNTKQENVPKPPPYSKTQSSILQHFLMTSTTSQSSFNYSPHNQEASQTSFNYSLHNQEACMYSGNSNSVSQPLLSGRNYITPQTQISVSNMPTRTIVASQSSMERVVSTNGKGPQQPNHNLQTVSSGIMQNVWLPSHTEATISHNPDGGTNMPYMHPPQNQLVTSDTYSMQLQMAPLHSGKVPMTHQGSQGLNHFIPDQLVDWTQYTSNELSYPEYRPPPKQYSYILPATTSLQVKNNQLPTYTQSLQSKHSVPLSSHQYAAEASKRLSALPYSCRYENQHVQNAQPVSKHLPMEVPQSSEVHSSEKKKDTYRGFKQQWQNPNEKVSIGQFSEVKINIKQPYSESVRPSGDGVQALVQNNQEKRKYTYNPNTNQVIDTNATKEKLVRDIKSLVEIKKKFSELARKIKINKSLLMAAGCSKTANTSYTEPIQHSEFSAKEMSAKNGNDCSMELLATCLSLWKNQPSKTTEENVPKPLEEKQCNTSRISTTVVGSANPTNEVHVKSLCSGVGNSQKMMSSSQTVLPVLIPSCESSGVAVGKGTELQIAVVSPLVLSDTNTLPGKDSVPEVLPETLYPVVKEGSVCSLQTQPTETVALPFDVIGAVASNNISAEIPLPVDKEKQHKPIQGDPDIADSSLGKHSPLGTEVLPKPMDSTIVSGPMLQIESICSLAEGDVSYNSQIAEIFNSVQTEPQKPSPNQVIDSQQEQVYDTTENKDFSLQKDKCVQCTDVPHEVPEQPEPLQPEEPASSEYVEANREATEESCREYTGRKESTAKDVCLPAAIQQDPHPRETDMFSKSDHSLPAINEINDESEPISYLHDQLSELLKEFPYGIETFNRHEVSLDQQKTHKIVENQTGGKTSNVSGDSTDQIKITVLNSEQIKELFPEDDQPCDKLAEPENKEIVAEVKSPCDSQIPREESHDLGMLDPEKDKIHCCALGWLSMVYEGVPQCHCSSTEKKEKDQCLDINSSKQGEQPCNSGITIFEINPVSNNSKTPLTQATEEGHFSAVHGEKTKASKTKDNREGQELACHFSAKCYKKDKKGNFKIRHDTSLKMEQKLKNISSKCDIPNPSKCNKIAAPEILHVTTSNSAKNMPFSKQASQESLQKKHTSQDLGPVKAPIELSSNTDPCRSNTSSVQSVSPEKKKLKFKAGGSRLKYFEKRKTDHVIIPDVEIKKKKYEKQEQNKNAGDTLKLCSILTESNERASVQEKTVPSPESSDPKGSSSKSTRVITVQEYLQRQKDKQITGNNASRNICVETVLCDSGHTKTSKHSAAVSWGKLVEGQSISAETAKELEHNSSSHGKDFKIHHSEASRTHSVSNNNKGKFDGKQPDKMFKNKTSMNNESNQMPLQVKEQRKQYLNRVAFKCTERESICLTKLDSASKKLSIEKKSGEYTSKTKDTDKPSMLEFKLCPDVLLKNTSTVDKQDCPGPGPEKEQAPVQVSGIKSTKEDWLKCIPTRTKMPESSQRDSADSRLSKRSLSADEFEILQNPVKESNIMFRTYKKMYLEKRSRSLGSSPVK

Target: Retroelement silencing factor 1 (RESF1), Flag-tagged (mouse) (UniProt Q5DTW7)
Test: co-IP; Nuclear extracts of E14/T ESCs co-transfected with Flag-RESF1 and HA-NANOG; NE buffer (20 mM Hepes pH 7.6, 350 mM KCl, 0.2% NP-40), benzonase-treated; anti-FLAG M2 affinity beads, 2 h at room temperature; immunoblot; control cells expressed HA-NANOG alone

- binding: binds
B1: NANOG, HA-tagged (protein, UniProt Q80Z64 1-305)
chain: MSVGLPGPHSLPSSEEASNSGNASSMPAVFHPENYSCLQGSATEMLCTEAASPRPSSEDLPLQGSPDSSTSPKQKLSSPEADKGPEEEENKVLARKQKMRTVFSQAQLCALKDRFQKQKYLSLQQMQELSSILNLSYKQVKTWFQNQRMKCKRWQKNQWLKTSNGLIQKGSAPVEYPSIHCSYPQGYLVNASGSLSMWGSQTWTNPTWSSQTWTNPTWNNQTWTNPTWSSQAWTAQSWNGQPWNAAPLHNFGEDFLQPYVQLQQNFSASDLEVNLEATRESHAHFSTPQALELFLNYSVTPPGEI
